No constants are given. Whether binding was seen depends on the method and setting. Binding seen in cells or lysates may run through a third protein. These calls come from enrichment with a bait or labelling near it, and not all partners need be listed.
Legend:
[1] = biological target: HACRY, a hemagglutinin (HA)-tagged form of Drosophila CRYPTOCHROME (dCRY) (Drosophila melanogaster) (UniProt O77059); assay: affinity purification with mass spectrometry; Co-IP of HACRY from head extracts of GMR > HACRY flies (photoreceptors), 50 male heads per sample, 12:12 LD, collected at ZT0 and ZT1; CantonS controls as filter; 3 independent samples
[2] = biological target: HACRY, a hemagglutinin (HA)-tagged form of Drosophila CRYPTOCHROME (dCRY) (Drosophila melanogaster) (UniProt O77059); assay: affinity purification with mass spectrometry; Co-IP of HACRY from head extracts of repo > HACRY flies (glia), 50 male heads per sample, 12:12 LD, collected at ZT0 and ZT1; CantonS controls as filter; 3 independent samples
[3] = biological target: HACRY, a hemagglutinin (HA)-tagged form of Drosophila CRYPTOCHROME (dCRY) (Drosophila melanogaster) (UniProt O77059); assay: affinity purification with mass spectrometry; Co-IP and MS from heads of flies expressing HACRY in TIM-positive cells, at ZT0 and after a 15 min light pulse at the same ZT; 40-kDa species identified

The chains behind the UniProt entries cited, without tags or fusion partners.
UniProt O77059: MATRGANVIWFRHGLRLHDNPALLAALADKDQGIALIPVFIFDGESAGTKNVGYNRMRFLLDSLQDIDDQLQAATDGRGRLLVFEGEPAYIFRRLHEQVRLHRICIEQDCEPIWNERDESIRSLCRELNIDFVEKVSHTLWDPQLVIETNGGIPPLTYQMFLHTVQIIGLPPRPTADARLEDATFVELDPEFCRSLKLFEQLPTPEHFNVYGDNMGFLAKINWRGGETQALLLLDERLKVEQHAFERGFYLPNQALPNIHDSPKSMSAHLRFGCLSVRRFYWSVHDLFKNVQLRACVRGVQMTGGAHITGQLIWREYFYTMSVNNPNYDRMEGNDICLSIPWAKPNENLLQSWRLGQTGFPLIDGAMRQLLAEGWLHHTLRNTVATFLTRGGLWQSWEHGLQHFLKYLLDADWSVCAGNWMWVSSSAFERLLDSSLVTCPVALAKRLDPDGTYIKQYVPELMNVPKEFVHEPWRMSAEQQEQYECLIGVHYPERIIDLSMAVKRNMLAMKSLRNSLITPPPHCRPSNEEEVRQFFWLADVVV

B1: HRB27C (protein, UniProt P48809 1-421)
chain: MEEDERGKLFVGGLSWETTQENLSRYFCRFGDIIDCVVMKNNESGRSRGFGFVTFADPTNVNHVLQNGPHTLDGRTIDPKPCNPRTLQKPKKGGGYKVFLGGLPSNVTETDLRTFFNRYGKVTEVVIMYDQEKKKSRGFGFLSFEEESSVEHVTNERYINLNGKQVEIKKAEPRDGSGGQNSNNSTVGGAYGKLGNECSHWGPHHAPINMMQGQNGQMGGPPLNMPIGAPNMMPGYQGWGTSPQQQQYGYGNSGPGSYQGWGAPPGPQGPPPQWSNYAGPQQTQGYGGYDMYNSTSTGAPSGPSGGGSWNSWNMPPNSAGPTGAPGAGAGTATDMYSRAQAWATGGPSTTGPVGGMPRTGPGNSASKSGSEYDYGGYGSGYDYDYSNYVKQEGASNYGAGPRSAYGNDSSTQPPYATSQAV
[1]
  binding: binds
[2]
  binding: binds

B2: RNA-binding protein SQUID (protein, UniProt Q08473 1-344)
chain: MAENKQVDTEINGEDFTKDVTADGPGSENGDAGAAGSTNGSSDNQSAASGQRDDDRKLFVGGLSWETTEKELRDHFGKYGEIESINVKTDPQTGRSRGFAFIVFTNTEAIDKVSAADEHIINSKKVDPKKAKARHGKIFVGGLTTEISDEEIKTYFGQFGNIVEVEMPFDKQKSQRKGFCFITFDSEQVVTDLLKTPKQKIAGKEVDVKRATPKPENQMMGGMRGGPRGGMRGGRGGYGGRGGYNNQWDGQGSYGGYGGGYGGYGAGGYGDYYAGGYYNGYDYGYDGYGYGGGFEGNGYGGGGGGNMGGGRGGPRGGGGPKGGGGFNGGKQRGGGGRQQRHQPY
[1]
  binding: binds
[2]
  binding: binds
[3]
  binding: binds

B3: HRB87F (protein, UniProt P48810 1-385)
chain: MAEQNDSNGNYDDGEEITEPEQLRKLFIGGLDYRTTDDGLKAHFEKWGNIVDVVVMKDPKTKRSRGFGFITYSQSYMIDNAQNARPHKIDGRTVEPKRAVPRQEIDSPNAGATVKKLFVGGLRDDHDEECLREYFKDFGQIVSVNIVSDKDTGKKRGFAFIEFDDYDPVDKIILQKTHSIKNKTLDVKKAIAKQDMDRQGGGGGRGGPRAGGRGGQGDRGQGGGGWGGQNRQNGGGNWGGAGGGGGFGNSGGNFGGGQGGGSGGWNQQGGSGGGPWNNQGGGNGGWNGGGGGGYGGGNSNGSWGGNGGGGGGGGGFGNEYQQSYGGGPQRNSNFGNNRPAPYSQGGGGGGFNKGNQGGGQGFAGNNYNTGGGGQGGNMGGGNRRY
[1]
  binding: binds

B4: PEP (protein, UniProt P41073 1-716)
chain: MVSVKVNGNPQNRLVNNAKVNGNMAFRGNQNRNRNFGGGNNNYGGPMGANRMGGMNMSPWESQNPGGGQFGNNMRQGGGQMNAQAINLANNLLNNLFRNQNPPSLLDLPRGGGGMGNRNQRGGPMVSRGGGAGNRLNNRRGQGGGFQNRGATGSGPKPPPKQGGGGIRKQNAFDRAKKLLAKNANQNKKKEPTPGEKKIESPTKESPYASVPNDMFYCHLCKKHMWDANSFENHIKGRTHLMMREGIEESYRLKANMIRQEAKIAEQLKSIEFDRLKRMGKSKQRQLDYCTMCDLNFHGHISTHRKSEGHLQLKKFLHPKCIECNKEFATRIDYDTHLLSAEHLKKAAENNTKVGERKRQTLPISTEEEETRDLRLPQKRKKKPVKKEGEAADGEAKKEGAGDGEGAEGDEAEGEEAKEGEEAADETKEGDELNESQEEEEVALPVDPEDCILDFNDGDEIPSEVDTRLPKYNWQRAVGPGLISKLECYECSVCSKFFDTEVTAEIHSRTATHHRNFLKFINEKSSDTKIAQKRAAAALEENERKKRKVEEAEAPAAEGAAEETTEGAEGELYDPSEATGDDEDVEMVDDNAEGEGEGEGDEEAEAEVEEDGAGQDNGEEEMEAQEEEGQEGEQEPEPEPAPVQTPAPAEPAPPAKTPAKTPTKAAAPAAVASPAAAATSADASPSPAKKATPARAAAGAKATPQRQRARGRYNRY
[1]
  binding: binds

— publication PMC12661795
